Experimental data: PubChem BioAssay AID493246 (Drosophila RNAi Screening Center, 2011)
The deposit covers about 21,000 reagents; below is a random part of those that have a named target and a result. Over the whole deposit, 429 (2%) are marked active. 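Values are raw and not normalised between plates; calls rest on per-plate z-scores that were not deposited.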 The numbers tell different reagents against one gene apart. The record does not give: the amount of reagent, the time to read-out.

- Purpose: 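Genes fly cells need to grow and stay alive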 (primary screen)
- Cells: Drosophila Kc and S2R+ cells
- Reagents: long dsRNA against Drosophila genes
- Read-out: 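Cell number per well after knock-down, printed as raw plate values; calls were based on per-plate z-scores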
- Direction: Kc cell number and S2R+ cell number: higher = more cells remaining
- Active means: 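Active when the per-plate z-score of cell number is 3 or more in the direction of fewer cells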

After knock-down of danr (distal antenna-related) the results were Kc cell number, rep 1 = 1.59e6; Kc cell number, rep 2 = 1.72e6; S2R+ cell number, rep 1 = 1.03e6; S2R+ cell number, rep 2 = 1.10e6; inactive.
CG15390 scored Kc cell number, rep 1 = 1.39e6; Kc cell number, rep 2 = 1.45e6; S2R+ cell number, rep 1 = 1.08e6; S2R+ cell number, rep 2 = 1.19e6; inactive.
Silencing of Fum3 (Fumarase 3) gave: Kc cell number, rep 1 = 1.26e6; Kc cell number, rep 2 = 1.29e6; S2R+ cell number, rep 1 = 1.26e6; S2R+ cell number, rep 2 = 1.30e6; inactive.
Against CR34254 (pseudo) the deposit lists Kc cell number, rep 1 = 1.58e6; Kc cell number, rep 2 = 1.68e6; S2R+ cell number, rep 1 = 1.11e6; S2R+ cell number, rep 2 = 1.32e6; inactive.
Against CG1910, the values are Kc cell number, rep 1 = 5.22e5; S2R+ cell number, rep 1 = 7.07e5; inactive.
Against SecCl (Secretory chloride channel), the entry reads Kc cell number, rep 1 = 1.29e6; Kc cell number, rep 2 = 1.44e6; S2R+ cell number, rep 1 = 1.26e6; S2R+ cell number, rep 2 = 1.32e6; inactive.
Knock-down of vls (valois) gave: Kc cell number, rep 1 = 1.40e6; Kc cell number, rep 2 = 1.52e6; S2R+ cell number, rep 1 = 1.33e6; S2R+ cell number, rep 2 = 1.36e6; inactive.
Silencing of TotC (Turandot C) came out at: Kc cell number, rep 1 = 1.36e6; Kc cell number, rep 2 = 1.40e6; S2R+ cell number, rep 1 = 1.02e6; S2R+ cell number, rep 2 = 1.07e6; inactive.
CG7968 scored Kc cell number, rep 1 = 1.52e6; Kc cell number, rep 2 = 1.59e6; S2R+ cell number, rep 1 = 1.17e6; S2R+ cell number, rep 2 = 1.36e6; inactive.
CG8379 gave Kc cell number, rep 1 = 1.56e6; Kc cell number, rep 2 = 1.73e6; S2R+ cell number, rep 1 = 1.31e6; S2R+ cell number, rep 2 = 1.51e6; inactive.
Silencing of Gld (Glucose dehydrogenase) gave: Kc cell number, rep 1 = 1.64e6; Kc cell number, rep 2 = 1.81e6; S2R+ cell number, rep 1 = 1.28e6; S2R+ cell number, rep 2 = 1.34e6; inactive.
RpL18 (Ribosomal protein L18) scored Kc cell number, rep 1 = 6.44e5; Kc cell number, rep 2 = 7.86e5; S2R+ cell number, rep 1 = 5.69e5; S2R+ cell number, rep 2 = 6.40e5; active.
Depletion of phr (photorepair) came out at: Kc cell number, rep 1 = 1.56e6; Kc cell number, rep 2 = 1.59e6; S2R+ cell number, rep 1 = 1.25e6; S2R+ cell number, rep 2 = 1.42e6; inactive.
CG17475 showed Kc cell number, rep 1 = 1.26e6; Kc cell number, rep 2 = 1.30e6; S2R+ cell number, rep 1 = 1.22e6; S2R+ cell number, rep 2 = 1.33e6; inactive.
With knock-down of apolpp (apolipophorin) the results were Kc cell number, rep 1 = 4.86e5; S2R+ cell number, rep 1 = 8.90e5; inactive.
Against CG6462, the values are Kc cell number, rep 1 = 1.54e6; Kc cell number, rep 2 = 1.47e6; S2R+ cell number, rep 1 = 1.08e6; S2R+ cell number, rep 2 = 1.19e6; inactive.
Lip3 (Lipase 3) scored Kc cell number, rep 1 = 1.42e6; Kc cell number, rep 2 = 1.38e6; S2R+ cell number, rep 1 = 1.08e6; S2R+ cell number, rep 2 = 1.21e6; inactive.
With knock-down of Pop5 (POP5 ribonuclease P/MRP subunit), the record shows Kc cell number, rep 1 = 1.69e6; Kc cell number, rep 2 = 1.77e6; S2R+ cell number, rep 1 = 1.31e6; S2R+ cell number, rep 2 = 1.33e6; inactive.
For CAH13 (Carbonic anhydrase 13) the deposit lists Kc cell number, rep 1 = 1.55e6; Kc cell number, rep 2 = 1.57e6; S2R+ cell number, rep 1 = 1.31e6; S2R+ cell number, rep 2 = 1.49e6; inactive.
inaE (inactivation no afterpotential E) #1 scored Kc cell number, rep 1 = 1.64e6; Kc cell number, rep 2 = 1.66e6; S2R+ cell number, rep 1 = 1.06e6; S2R+ cell number, rep 2 = 1.19e6; inactive.
Against inaE (inactivation no afterpotential E) #2 the deposit lists Kc cell number, rep 1 = 5.33e5; S2R+ cell number, rep 1 = 8.08e5; inactive.
inaE (inactivation no afterpotential E) #3 showed Kc cell number, rep 1 = 1.58e6; Kc cell number, rep 2 = 1.59e6; S2R+ cell number, rep 1 = 1.09e6; S2R+ cell number, rep 2 = 1.13e6; inactive.
After knock-down of inaE (inactivation no afterpotential E) #4, the record shows Kc cell number, rep 1 = 1.65e6; Kc cell number, rep 2 = 1.63e6; S2R+ cell number, rep 1 = 1.03e6; S2R+ cell number, rep 2 = 1.12e6; inactive.
Depletion of tud (tudor) resulted in: Kc cell number, rep 1 = 1.44e6; Kc cell number, rep 2 = 1.45e6; S2R+ cell number, rep 1 = 1.27e6; S2R+ cell number, rep 2 = 3.03e5; inactive.
CG8012 showed Kc cell number, rep 1 = 1.65e6; Kc cell number, rep 2 = 1.59e6; S2R+ cell number, rep 1 = 1.30e6; S2R+ cell number, rep 2 = 1.13e6; inactive.
For Tsp5D (Tetraspanin 5D), the entry reads Kc cell number, rep 1 = 1.62e6; Kc cell number, rep 2 = 1.56e6; S2R+ cell number, rep 1 = 1.11e6; S2R+ cell number, rep 2 = 1.23e6; inactive.
Silencing of a6 came out at: Kc cell number, rep 1 = 4.95e5; S2R+ cell number, rep 1 = 7.46e5; inactive.

Already shown: 2 of the entries above.
CG7968 | Kc cell number, rep 1 = 1.52e6; Kc cell number, rep 2 = 1.59e6; S2R+ cell number, rep 1 = 1.17e6; S2R+ cell number, rep 2 = 1.36e6; Outcome = inactive
CG8379 | Kc cell number, rep 1 = 1.56e6; Kc cell number, rep 2 = 1.73e6; S2R+ cell number, rep 1 = 1.31e6; S2R+ cell number, rep 2 = 1.51e6; Outcome = inactive
